Data reported in patent publication US7459156 (University of California, dated 2008).
These are yes or no findings as the source states them, for the method shown. Some results given as binding are weak or reduced against the parent protein; the word gives no strength.

Sequences of proteins named here, by UniProt entry; tags and fusion partners are left off. Residues count along the entry.
UniProt P07174, residues 30-425: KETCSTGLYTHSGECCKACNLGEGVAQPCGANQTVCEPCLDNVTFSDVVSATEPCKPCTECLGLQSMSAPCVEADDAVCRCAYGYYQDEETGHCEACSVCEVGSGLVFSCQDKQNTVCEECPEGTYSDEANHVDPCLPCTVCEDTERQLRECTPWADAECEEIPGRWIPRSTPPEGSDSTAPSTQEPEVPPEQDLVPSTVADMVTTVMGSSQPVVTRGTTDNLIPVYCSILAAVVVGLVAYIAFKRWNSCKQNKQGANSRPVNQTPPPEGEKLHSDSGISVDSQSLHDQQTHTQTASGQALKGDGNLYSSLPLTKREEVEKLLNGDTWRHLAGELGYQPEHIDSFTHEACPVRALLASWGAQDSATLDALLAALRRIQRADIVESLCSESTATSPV
UniProt P01139, residues 122-241: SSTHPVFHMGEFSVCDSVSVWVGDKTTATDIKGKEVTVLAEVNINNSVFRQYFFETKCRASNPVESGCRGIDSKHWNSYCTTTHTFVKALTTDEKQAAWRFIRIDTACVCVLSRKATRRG

Target: low affinity nerve growth factor receptor (LNGFR) on PC12 cells (rat) (UniProt P07174)
Assay: NGF cross-linking assay on cells

binding: binds
Substance: nerve growth factor (NGF) (from UniProt P01139 122-241) (ligand)
